According to patent US20060171884A1 (Amgen, published 2006):
Results are given in words; binding and its absence hold for the method and conditions named. Some binding calls cover weakened binding; strength is not graded here.

Tests used:
[1] = molecular target: T1, Matriptase (soluble enzyme, form not stated) (human) (UniProt Q9Y5Y6); assay: competition ELISA, HAI-1 titrated from 2 µg/ml against biotinylated MT-SP1, capture on sc95/96-coated plate
T1 sequence: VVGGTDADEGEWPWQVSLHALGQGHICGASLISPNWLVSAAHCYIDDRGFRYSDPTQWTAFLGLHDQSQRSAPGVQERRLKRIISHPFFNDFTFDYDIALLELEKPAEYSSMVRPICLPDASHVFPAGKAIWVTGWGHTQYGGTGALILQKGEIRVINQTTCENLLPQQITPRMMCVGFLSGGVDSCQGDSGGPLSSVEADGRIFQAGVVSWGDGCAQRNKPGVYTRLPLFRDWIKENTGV

[2] = molecular target: T1, Matriptase (soluble enzyme, form not stated) (human); assay: competition ELISA: 125 ng/ml biotinylated MTSP1 pre-incubated 1 hour with titrated HAI-1, then transferred to a sc95/96 coated plate, bound MTSP detected with SA-pod; competitor: plate-coated sc95/96

B1: HAI-1 (soluble, as titrated in the competition assay) (other, UniProt O43278 36-465, looked up)
chain: GPPPAPPGLPAGADCLNSFTAGVPGFVLDTNASVSNGATFLESPTVRRGWDCVRACCTTQNCNLALVELQPDRGEDAIAACFLINCLYEQNFVCKFAPREGFINYLTREVYRSYRQLRTQGFGGSGIPKAWAGIDLKVQPQEPLVLKDVENTDWRLLRGDTDVRVERKDPNQVELWGLKEGTYLFQLTVTSSDHPEDTANVTVTVLSTKQTEDYCLASNKVGRCRGSFPRWYYDPTEQICKSFVYGGCLGNKNNYLREEECILACRGVQGGPLRGSSGAQATFPQGPSMERRHPVCSGTCQPTQFRCSNGCCIDSFLECDDTPNCPDASDEAACEKYTSGFDELQRIHFPSDKGHCVDLPDTGLCKESIPRWYYNPFSEHCARFTYGGCYGNKNNFEEEQQCLESCRGISKKDVFGLRREIPIPSTGSVE
In the case of B1, the binding [1] is reported as “binds” and the binding [2] is reported as “binds”.
